Over roughly 33,000 sequences, “E-score (-0.5 to 0.5)” has its median near -0.0034; the highest 2% begin near 0.25. The list shows a part of the results.
What follows are sequences tested against T1, Yap3 (UniProt P38749) (assay: PBM E-score (8-mer binding enrichment) (E-score (-0.5 to 0.5)); higher = stronger / more preferred TF binding). Settings: protein concentration: 100 nM; construct: GST-full length.
T1 sequence: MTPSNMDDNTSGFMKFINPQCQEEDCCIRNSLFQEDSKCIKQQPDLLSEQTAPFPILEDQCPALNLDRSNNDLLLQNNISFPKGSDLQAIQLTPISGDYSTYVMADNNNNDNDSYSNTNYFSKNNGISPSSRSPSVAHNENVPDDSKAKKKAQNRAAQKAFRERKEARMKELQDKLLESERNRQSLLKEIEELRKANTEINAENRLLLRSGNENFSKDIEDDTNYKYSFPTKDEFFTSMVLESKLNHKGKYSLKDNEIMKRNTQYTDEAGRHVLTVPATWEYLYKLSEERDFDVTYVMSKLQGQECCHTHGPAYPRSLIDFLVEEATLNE
Description: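 Universal 'all 10-mer' protein binding microarrays (Agilent AMADID 015681) probed with GST-tagged S. cerevisiae TFs (full-length or DBD) made by in vitro transcription/translation (PURExpress), about 100-200 nM. Bound TF was detected with fluorescent anti-GST. Each ungapped 8-mer (which stands for itself and its reverse complement) is scored by the PBM enrichment score (E-score), a modified Wilcoxon-Mann-Whitney statistic from -0.5 to +0.5, computed with the Universal PBM Analysis Suite. Scale: above 0.35 generally sequence-specific binding.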

Row | Sequence | PBM E-score
1 | ACGACGAA | -0.00337
2 | ATAAGCTA | 0.0112
3 | CGCCAGTC | -0.219
4 | ACTTGCAG | -0.0406
5 | CTTAACCC | -0.255
6 | TCAACGAA | 0.107
7 | AGCGAAAA | 0.0302
8 | ATGGCCAG | 0.079
9 | ACCTTGCA | -0.106
10 | CCGTGATC | -0.055
11 | ACCAGCGG | -0.0505
12 | GTATGCCA | -0.158
13 | AACGCGGT | 0.0149
14 | CAATCTTA | 0.0401
15 | ACTTTCCC | 0.038
16 | CTTGTTTA | 0.0644
17 | AGGTAACT | 0.0241
18 | CCTCAAGA | -0.0418
19 | CCCTTTCC | -0.243
20 | ACCAACAA | 0.165
21 | AAAGAGAA | 0.0618
22 | TCAGGTAA | 0.119

Row | Sequence | PBM E-score
23 | AAATGGAC | 0.128
24 | AGCAGTTC | -0.126
25 | CGTTATAA | 0.149
26 | ATCAGCCA | -0.13
27 | TACGGGGA | -0.133
28 | AGGCCATC | -0.0393
29 | AGTCCCCA | -0.341
30 | ATCGCCGA | 0.0148
31 | TCTTATAA | 0.0935
32 | AAAAGGGT | 0.0298
33 | TCGGATAA | 0.143
34 | CTTCGCGA | -0.0504
35 | ATTAAAGC | 0.2
36 | TCACTCCA | 0.0118
37 | CAGCGCTC | -0.188
38 | CGCGTAAC | 0.014
39 | CGGTCAGA | -0.0863
40 | CAGCCTGG | -0.065
41 | ATATCGGA | 0.0801
42 | TACCCGTA | 0.0349
43 | CTCCTACC | -0.275
44 | CAAAAAGG | 0.0136

Single values from the results shown:
Entry for ATTAAAGC under PBM E-score: 0.2
Entry for CAAAAAGG under PBM E-score: 0.0136
Entry for AGCAGTTC under PBM E-score: -0.126

(further entries)

Row | Sequence | PBM E-score
45 | AGTTGTTC | 0.104
46 | ATATCCGC | 0.114
47 | CTAATGTC | 0.124
48 | AGACTGTG | -0.0423
49 | GTACGGAA | 0.18
50 | GTATAGCA | 0.135
51 | CCTTCCAA | -0.0151
52 | TACACCTA | 0.243
53 | CATAGGCG | -0.0618
54 | ACGGGCAT | -0.0136
55 | GCTAGAGC | -0.237
56 | GCAGGGAC | -0.156
57 | GAACGCTA | -0.0749
58 | GGGCAAAA | 0.0668
59 | CCCTTTTC | -0.00476
60 | AGAATCCC | 0.063
61 | CTCGGGGC | -0.202
62 | AAATCATT | 0.0767
63 | CTACGGTC | -0.0956
64 | CTCCATTC | -0.0533
65 | CACAGTAC | 0.0246
66 | CACAACAC | 0.173

Row | Sequence | PBM E-score
67 | CAGTCCGG | -0.284
68 | ATTGCTCC | -0.0573
69 | CCTGACCG | -0.211
70 | CGTTATCC | 0.0546
71 | AACAGACC | -0.00049
72 | CAACTCTG | -0.0809
73 | CTCGGATC | -0.0202
74 | AAAGATTT | 0.0823
75 | CATTCGCC | -0.146
76 | AGGCTGTG | -0.00176
77 | ACCTAGCC | -0.112
78 | ATGCCATC | 0.0232
79 | AACCCGGA | -0.243
80 | CCGGTGCC | -0.337
81 | GCATATAC | 0.0525
82 | ACGCGGTA | 0.00829
83 | GTTCAGTA | 0.0681
84 | AGAGTCAC | -0.069
85 | ACTAGTAA | 0.115
86 | CACTTGGA | 0.0141

Looked up one by one from above (2):
Row | Sequence | PBM E-score
80 | CCGGTGCC | -0.337
82 | ACGCGGTA | 0.00829

Reference: the supplement of paper PMC3334620
